# Measured values as given in PubChem BioAssay AID1458 (National Center for Advancing Translational Sciences (NCATS), 2008).
# Among all 210,000 compounds or so, about 5,900 (2.8%) were called active. Inconclusive results (about 5%) are left out. Calls come from the whole dose curve; as a rule, active = well fitted activation curve with a large enough effect; inconclusive = small, poorly fitted or top-dose-only effect; inactive = no such curve, though single readings can be large or run the other way. The list shows a part of the results, in another mix than the full data. The source gives no active or inactive call for entries shown without one.
# Experiment: qHTS Assay for Enhancers of SMN2 Splice Variant Expression; note: nearly all actives have a fitted effect of over 55% in size; for activity change, positive = activation: % of control where 0% means no effect
# Settings: HEK293 SMN2-luciferase splicing reporter, luminescence, 30-36 h; activity change, positive = activation: at 46.1 µM (top of the series) unless noted
# Source text: NIH Chemical Genomics Center [NCGC] NIH Molecular Libraries Probe Production centers Network [MLPCN] MLPCN Grant: R03 MH084179-01 Assay Submitter (PI): Elliot Androphy NCGC Assay Overview: Spinal muscular atrophy (SMA) is caused by insufficient levels of the survival motor neuron protein SMN. The SMN locus on chromosome 5q13 contains two inverted copies of SMN called SMN1 and SMN2 which are 99% identical at the amino acid level. SMN1 is a fully functional protein and SMN2 skips exon 7 90% of the time. Skipping of exon 7 produces non-functional protein product. 10% of the SMN2 protein includes exon 7 and is fully functional. In the SMA disease state, mutations in the SMN1 locus are the cause of the disease state. Because only 10% of SMN2 is of the fully functional form, it is not sufficient to overcome the deficiency produced by the loss of the SMN1 product. A therapy that either increase the amount of SMN2 product made or to increase the inclusion of exon 7 has been proposed for the treatment of SMA. We have designed an assay to identify small molecules that can increase the amount of functional SMN2 product by appending a luciferase reporter gene after the native SMN2 gene, such that inclusion of exon 7 in the expressed product places the luciferase sequence in frame, thus generating functional luciferase enzyme.
# NCGC Assay Protocol Summary: This screen utilizes a luciferase reporter gene assay, combining the promoter and splicing based cassettes in tandem with the major portion of the native SMN2 cDNA, and then transfected into HEK293 cells. Compounds that increase luciferase signal presumably enhance expression of the functional SMN2 splice variant. Passaging media contained DMEM w/ glutamax (+phenol red) 10% FCS, 1x pen/strep, 200 ug/ml hygro, 1x sodium pyruvate. Assay media contained DMEM w/ glutamax (-phenol red) 10% FCS, 1x pen strep, 1x pyruvate Sequence, Parameter, Value, Description (1) Cells, […], 2000 cells/well, 1536 TC treated White solid bottom plate (2) Time, 10-12 hours, 37C 5% CO2 (3) Compound, 23 nl, MLSMR Library (4) Control Compound, 23 nL, Sodium butyrate st 4.5mM (final) conc (5) Time, 30-36 hours, 37C 5% CO2 (6) Reagent, 3 ul, One Glo (TM) from Promega (7) Time, 5-15 minutes, Room temp (8) Detector, Viewlux: luminescent read, 60 second integration, high speed 2x binning Keywords: Spinal muscular atrophy, SMA, SMN2, high throughput screening, MLSMR, MLPCN, NIH Roadmap, qHTS and NCGC
# Potency is the fitted concentration of half-maximal effect.
SMILES,"activity change, positive = activation",Potency
Cc1nc(NC(=O)C2CC3CCCC(C2)C3=O)sc1C (stereo not given),69.2%,
Cc1cccc(C(C)C)c1NC(=O)c1ccc(COc2ccc3c(C)cc(=O)oc3c2)cc1,-29.5%,
O=C(CCCC(=O)OCC1CCCO1)OCC1CCCO1 (stereo not given),31.8%,
O=C1Nc2ccccc2C(O)(C(=O)NCc2ccco2)N1c1ccccc1 (stereo not given),44.2%,
O=C(C1CCN(S(=O)(=O)c2cccc3cccnc23)CC1)N1CCn2c1nc1ccccc12,inactive: -32%,
c1ccc(-c2nnc3sc(-c4ccncc4)nn23)cc1,,active: 4.47 µM
O=C(COC(=O)c1ccccc1[N+](=O)[O-])c1ccc(C2CCCCC2)cc1,inactive: -55.7%,
C=CCNc1ncnc2c1[nH]c1ccc(Cl)cc12,inactive: -79.5%,
CC(=O)c1cnc(-c2ccccc2)s1,76.6%,
CCn1c(=O)c2cc(S(=O)(=O)NCc3ccccc3)ccc2n(CC)c1=O,40.6%,
CCc1ccc(C(N)=S)cc1,inactive: 12.7%,
COc1ccc(NC(=S)N(CCCN2CCC(C)CC2)Cc2cccs2)cc1,-50%,
CN(/N=C/c1cccnc1)c1cnn(-c2ccc(F)c(Cl)c2)c(=O)c1Cl,50.4%,
COc1ccc(C(CC(=O)O)NC(=O)c2ccccc2)cc1OC (stereo not given),17.9%,
CCOc1cc2[nH]c(=O)n(Cc3ccc(C(=O)NCCCN4CCCC4=O)cc3)c(=O)c2cc1OCC,-16.5%,
CCOc1ccccc1OCCn1nnc2ccccc21,-64.3%,
CN(C)C(=O)c1cc(C(=O)c2ccccc2C(F)(F)F)c[nH]1,inactive: -65.9%,
CCCn1nnc(NC(=O)c2cccc(OCc3ccccc3)c2)n1,61.8%,
Cc1cc(C)c2c(CC(=O)Nc3ccc(F)cc3)coc2c1,inactive: -34.8%,
N=c1c2c(n(Cc3ccc(F)cc3)c3c1CCC3)CCCC2,-57.9%,
Cc1cc(C)c(OCC(=O)Nc2ccc3c(c2)OCO3)cc1C,43.5%,
CC(=O)N1CCc2cc(S(=O)(=O)NC(C(=O)NC3CCCc4ccccc43)C(C)C)ccc21 (stereo not given),64.5%,

SMILES,"activity change, positive = activation",Potency
Cc1ccccc1/C=N/NC(=O)c1sccc1C,,active: 10 µM
CCCCN(CCCC)S(=O)(=O)c1ccc(NC(=O)c2cccs2)cc1,inactive: -33.5%,
O=C(O)c1cc(-c2cccc(Cl)c2)nc2nc(N3CCCCC3)sc12,26.7%,
Cc1cccc(OCCn2c(=O)n(C)c3ccccc32)c1,,active: 12.6 µM
CSC(=NCc1cccnc1)NS(=O)(=O)c1cccs1,31.9%,
CC(=O)Nc1cc(C)nn1-c1nc2ccccc2s1,inactive: 126%,
CCOc1cc(C2NN=C(c3ccc(C)cc3)S2)ccc1O (stereo not given),,active: 15.8 µM
CCCCOC(=O)Nc1ccc(S(=O)(=O)Nc2nc(C)cc(C)n2)cc1,43.7%,
Cc1nc2ccccc2c2oc(C(=O)NCc3ccccn3)cc12,inactive: -37.5%,
N#C/C(=C\c1cn(Cc2cccc(F)c2)c2ccccc12)C(=O)NCc1ccco1,-4.23%,
O=C(Nc1ccccc1O)c1c(O)c2c([nH]c1=O)CCCC2,,active: 17.8 µM
COc1cc(SC)ccc1C(=O)NCCOc1ccccc1Cl,,active: 12.6 µM
CCC(C)n1nccc1NC(=O)C(C)OC(=O)c1cc2ccccc2[nH]1 (stereo not given),-69%,
Cc1ccc(C(=O)CC2(O)C(=O)N(CCc3ccccc3)c3ccc(Cl)cc32)cc1 (stereo not given),inactive: -41.9%,
Cn1c(=O)c2c(nc(NCc3ccco3)n2C)n(C)c1=O,47.9%,
Cc1nc2c3cnn(-c4ccc(C)c(C)c4)c3ncn2n1,,active: 11.2 µM
Cc1[nH]n(-c2cccc(Cl)c2)c(=O)c1C=NCc1ccco1,,active: 12.6 µM
O=C(Nc1nnc(CSCc2ccccc2F)s1)c1cccc([N+](=O)[O-])c1,-50.6%,
O=C(NN=C1CCCCCC1)NC1CCCCC1,24.2%,
O=C(Oc1ccccc1/C=C\C(=O)c1cc2ccccc2o1)c1cccc(F)c1,inactive: -106%,
Cc1ccc2nc(SCC(=O)Nc3ccc(C(N)=O)cc3)[nH]c2c1,42.9%,
C/C(=N\NC(=O)C1COc2ccccc2O1)c1ccccn1 (stereo not given),inactive: -75.8%,

SMILES,"activity change, positive = activation",Potency
COC(=O)Cn1ncc2c(C)n(Cc3ccccc3)c(C)c2c1=O,,active: 17.8 µM
COc1ccc(CNC(=O)c2c(C)oc3c2C(=O)c2ccccc2C3=O)cc1,inactive: -111%,
O=C(Nc1cnn(C23CC4CC(CC(C4)C2)C3)c1)c1cnn2cccnc12,63.3%,
CCN1CCCC1CN=Cc1c(O)n(-c2ccccc2)c(=O)c2ccccc12 (stereo not given),33.4%,
COC(=O)[C@@]1(Cc2ccc(OC)cc2)[C@H]2c3cc(C(=O)N4CCCC4)n(CCSCCO)c3C[C@H]2CN1C(=O)c1ccccc1,36.9%,
COC(=O)[C@H](CCSC)NC(=O)Nc1ccc(OC)cc1OC,63.9%,
CCOC(=O)CC(C)(C)/C(C)=N/Nc1ccc([N+](=O)[O-])cc1[N+](=O)[O-],-33.4%,
O=C(c1ccc(-c2ccccc2)cc1)c1ccccc1C(=O)N1CCOCC1,26.6%,
CCNC(=O)CC1C(=O)N(c2ccc(C)cc2)C(=O)N1Cc1ccccn1 (stereo not given),45.5%,
O=C(Nc1ccncc1)C1COc2ccccc2O1 (stereo not given),41.9%,
CCOC(=O)c1c(C)[nH]c(C)c1C(=O)CN1C(=O)NC2(CCC(C)CC2)C1=O (stereo not given),37.4%,
Cc1c(=O)n(OCc2ccccn2)c2ccccc2[n+]1[O-],32.4%,
Cn1c(=O)[nH]c(=O)c2c1nc(N1CCCCCC1)n2CCCSc1nc2ccccc2o1,32.4%,
Cc1csc(NC(=O)c2ccc(C)o2)n1,73.7%,
NC(=O)c1ccccc1NS(=O)(=O)c1cccs1,32.9%,
NC1=NN=C(c2ccc3c(c2)OCCO3)CS1,,active: 2.51 µM
Clc1ccc(/C=N/Nc2ccccn2)cc1,87.9%,
C[n+]1c2n(c3ccccc31)N=C(c1ccc(Br)cc1)CS2,-80%,
O=C(Nc1cccc(O)c1)C(=O)Nc1ccccn1,,active: 10 µM
CC[C@H](C)[C@H](NC(N)=O)C(=O)OCC(=O)NCc1ccc(Cl)cc1,39%,
O=c1oc2c(CN3CCCCC3)c(O)ccc2cc1-c1nc2ccccc2[nH]1,84.2%,
Cc1nnc(SCCn2c(N3CC(C)CC(C)C3)nc3c2c(=O)[nH]c(=O)n3C)s1 (stereo not given),31.4%,

SMILES,"activity change, positive = activation",Potency
CCOC(=O)c1ccc(NC(=O)CCOc2ccc(C)cc2)cc1,37.6%,
COC(=O)C1C(=O)NCC1c1ccc(OC)cc1 (stereo not given),44.4%,
Cc1nn(-c2nc3ccccc3[nH]2)c(=O)c2ccccc12,inactive: -98.4%,
CCn1nnc(NC(=O)c2cc3ccccc3o2)n1,,active: 31.6 µM
CC1(C)CC2CC(C)(CN2S(=O)(=O)c2ccc(C(=O)Nc3cc(S(=O)(=O)N4CCOCC4)ccc3Cl)cc2)C1 (stereo not given),-39.7%,
CC1Cc2ccccc2C(=O)N1 (stereo not given),38.3%,
CC1=C(C(=O)OC(C)C)C(C)NC(=O)N1 (stereo not given),33.6%,
CN(C)C(CNC(=O)CCCOc1ccccc1)c1ccco1 (stereo not given),44.5%,
CN(C)c1ccc(NC(=O)Nc2cccc(Cl)c2)cc1,,active: 12.6 µM
O=C(NC1CCCC1)C(c1cccnc1)N(C(=O)c1csnn1)C1CC1 (stereo not given),23.4%,
COC(=O)C1=C(C)NC(C)=C(C(=O)OC)C1c1ccc(N(C)C)cc1,37.6%,
O=CN1CCN(C(=O)c2ccc(-c3nc4ccccc4s3)s2)CC1,46.3%,
COc1ccc(C(=O)Nc2nc3ccccc3[nH]2)cc1S(=O)(=O)N1CCCC1,inactive: 18.5%,
CCOc1ccc(C2C(C#N)=C(N)Oc3cc(C)n(Cc4ccco4)c(=O)c32)cc1OC (stereo not given),53.9%,
C/C(N)=C(/C#N)C(=O)CSc1nnc(-c2ccc3c(c2)OCO3)o1,,active: 1.12 µM
NCC(O)COCCC12CC3CC(CC(C3)C1)C2 (stereo not given),33.2%,
CCOC(=O)Cc1csc(SCC(=O)Nc2cc(Cl)ccc2Oc2ccccc2)n1,29.2%,
COc1cccc(NS(=O)(=O)c2ccc3[nH]cc(C(=O)NCCC(C)C)c(=O)c3c2)c1,inactive: -51.5%,
COC(=O)C1=CN(C)C=C(C(=O)OC)C1c1ccsc1,37.6%,
Brc1ccc(-c2nc3ccccc3s2)s1,,active: 14.1 µM
CCOC(=O)C1=C2N(C)c3ccccc3N2CCC1=O,32.6%,
COc1ccc(C(=O)N2CCC(n3c(C)nc4cc(F)ccc43)CC2)cc1,inactive: -57.3%,

SMILES,"activity change, positive = activation",Potency
Oc1c(C=Nc2cccc3nsnc23)ccc2ccccc12,30.3%,
COc1ccc(S(=O)(=O)NCc2ccco2)cc1-c1nnc2c3ccccc3c(C)nn12,44.3%,
CCCOc1ccc(C(CC(=O)O)NC(=O)c2sc3ccccc3c2Cl)cc1 (stereo not given),-43.2%,
O=C(CCCC(=O)N/N=C\c1ccccn1)N/N=C\c1ccccn1,-3.98%,
O=C(Nc1ccc(-c2cn3ccsc3n2)cc1)c1ccc(F)c(S(=O)(=O)N2CCOCC2)c1,inactive: -71.3%,
CN=c1scc(-c2ccc([N+](=O)[O-])cc2)n1/N=C/c1ccco1,44%,
CCc1ccc(NC(=O)c2ccc(-c3ccccc3)s2)cc1,36.7%,
CCCCOc1ccc(Cc2n[nH]c(=S)n2N)cc1,-40.7%,
CCC(=O)c1ccc(OCC(O)CN2CCN(S(=O)(=O)N3CCCCC3)CC2)cc1 (stereo not given),-33.8%,
NC(=O)C1(N2CCCCC2)CCN(c2nc(-c3ccccc3)cs2)CC1,-44.3%,
COc1ccc(NC(=O)c2cc(C)on2)cc1OC,41.5%,
Cc1ccnc2ccc(-c3nc4ccccc4o3)cc12,,active: 17.8 µM
CCC(=O)NCCc1nc2cc(NC(=O)c3ccccc3OC)ccc2n1C,97.4%,
Cc1nn(-c2ccccc2)c2sc(C(=O)N3CCOCC3)cc12,,active: 11.2 µM
CC(C)C(=O)Nc1cccc(C(=O)Nc2nnc(C(C)C)s2)c1,,active: 11.2 µM
Nc1nc(NC(=O)CCCC(=O)O)nn1-c1ccccc1,36.6%,
O=C(Nc1cccc(-c2cn3ccccc3n2)c1)c1cccs1,44.5%,
O=C(NC(=S)Nc1ccc(N2CCCCC2)c(Cl)c1)c1ccc2c(c1)OCCO2,inactive: -54%,
CN(C)/C=C1\N=C(c2ccccc2)OC1=O,inactive: 7.9%,
COCCOC(=O)c1[nH]c2c(c1C)C(=O)C(C(=O)OC)C(C)C2 (stereo not given),,active: 11.2 µM
CCCC(=O)Nc1ccccc1-c1nnn(CC(=O)Nc2ccc(OCC)cc2)n1,inactive: -44.8%,
CCc1nn(CC(=O)NC2CC2)c(=O)c2cc3ccccc3n12,50.2%,

# Entries above that have a nitro group on carbon (4):
SMILES,"activity change, positive = activation",Potency
O=C(COC(=O)c1ccccc1[N+](=O)[O-])c1ccc(C2CCCCC2)cc1,inactive: -55.7%,
O=C(Nc1nnc(CSCc2ccccc2F)s1)c1cccc([N+](=O)[O-])c1,-50.6%,
CCOC(=O)CC(C)(C)/C(C)=N/Nc1ccc([N+](=O)[O-])cc1[N+](=O)[O-],-33.4%,
CN=c1scc(-c2ccc([N+](=O)[O-])cc2)n1/N=C/c1ccco1,44%,

# Copied from above (2 entries):
SMILES,"activity change, positive = activation",Potency
CCCCOc1ccc(Cc2n[nH]c(=S)n2N)cc1,-40.7%,
CCC(=O)c1ccc(OCC(O)CN2CCN(S(=O)(=O)N3CCCCC3)CC2)cc1 (stereo not given),-33.8%,
